Measurements from publication PMC11417407.
No constants are given. Whether binding was seen depends on the method and setting. Binding seen in cells or lysates may run through a third protein. Here binding means that the protein was enriched with, or labelled near, the bait; the list need not be complete.

Sequences of proteins named here, by UniProt entry; tags and fusion partners are left off.
UniProt Q13838: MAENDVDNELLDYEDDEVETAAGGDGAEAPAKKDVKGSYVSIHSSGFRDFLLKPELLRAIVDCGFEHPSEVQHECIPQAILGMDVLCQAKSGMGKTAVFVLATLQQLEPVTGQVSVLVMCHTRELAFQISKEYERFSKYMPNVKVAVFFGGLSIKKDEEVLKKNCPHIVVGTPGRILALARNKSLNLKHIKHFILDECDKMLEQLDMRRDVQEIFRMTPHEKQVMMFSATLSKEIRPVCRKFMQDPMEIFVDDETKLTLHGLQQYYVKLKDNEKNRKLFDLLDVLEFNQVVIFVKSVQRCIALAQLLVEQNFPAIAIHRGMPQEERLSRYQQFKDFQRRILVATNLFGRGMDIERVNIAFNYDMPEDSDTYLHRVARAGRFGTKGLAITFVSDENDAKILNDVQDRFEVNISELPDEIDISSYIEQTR

B1: CIP29 (endogenous, HeLa nuclear extract) (protein, UniProt P82979 1-210)
chain: MATETVELHKLKLAELKQECLARGLETKGIKQDLIHRLQAYLEEHAEEEANEEDVLGDETEEEETKPIELPVKEEEPPEKTVDVAAEKKVVKITSEIPQTERMQKRAERFNVPVSLESKKAARAARFGISSVPTKGLSSDNKPMVNLDKLKERAQRFGLNVSSISRKSEDDEKLKKRKERFGIVTSSAGTGTTEDTEAKKRKRAERFGIA
B2: DDX1 (endogenous, HeLa nuclear extract) (protein, UniProt Q92499 1-740)
chain: MAAFSEMGVMPEIAQAVEEMDWLLPTDIQAESIPLILGGGDVLMAAETGSGKTGAFSIPVIQIVYETLKDQQEGKKGKTTIKTGASVLNKWQMNPYDRGSAFAIGSDGLCCQSREVKEWHGCRATKGLMKGKHYYEVSCHDQGLCRVGWSTMQASLDLGTDKFGFGFGGTGKKSHNKQFDNYGEEFTMHDTIGCYLDIDKGHVKFSKNGKDLGLAFEIPPHMKNQALFPACVLKNAELKFNFGEEEFKFPPKDGFVALSKAPDGYIVKSQHSGNAQVTQTKFLPNAPKALIVEPSRELAEQTLNNIKQFKKYIDNPKLRELLIIGGVAARDQLSVLENGVDIVVGTPGRLDDLVSTGKLNLSQVRFLVLDEADGLLSQGYSDFINRMHNQIPQVTSDGKRLQVIVCSATLHSFDVKKLSEKIMHFPTWVDLKGEDSVPDTVHHVVVPVNPKTDRLWERLGKSHIRTDDVHAKDNTRPGANSPEMWSEAIKILKGEYAVRAIKEHKMDQAIIFCRTKIDCDNLEQYFIQQGGGPDKKGHQFSCVCLHGDRKPHERKQNLERFKKGDVRFLICTDVAARGIDIHGVPYVINVTLPDEKQNYVHRIGRVGRAERMGLAISLVATEKEKVWYHVCSSRGKGCYNTRLKEDGGCTIWYNEMQLLSEIEEHLNCTISQVEPDIKVPVDEFDGKVTYGQKRAAGGGSYKGHVDILAPTVQELAALEKEAQTSFLHLGYLPNQLFRTF
B3: RTCB (endogenous, HeLa nuclear extract) (protein, UniProt Q9Y3I0 1-505)
chain: MSRSYNDELQFLEKINKNCWRIKKGFVPNMQVEGVFYVNDALEKLMFEELRNACRGGGVGGFLPAMKQIGNVAALPGIVHRSIGLPDVHSGYGFAIGNMAAFDMNDPEAVVSPGGVGFDINCGVRLLRTNLDESDVQPVKEQLAQAMFDHIPVGVGSKGVIPMNAKDLEEALEMGVDWSLREGYAWAEDKEHCEEYGRMLQADPNKVSARAKKRGLPQLGTLGAGNHYAEIQVVDEIFNEYAAKKMGIDHKGQVCVMIHSGSRGLGHQVATDALVAMEKAMKRDKIIVNDRQLACARIASPEGQDYLKGMAAAGNYAWVNRSSMTFLTRQAFAKVFNTTPDDLDLHVIYDVSHNIAKVEQHVVDGKERTLLVHRKGSTRAFPPHHPLIAVDYQLTGQPVLIGGTMGTCSYVLTGTEQGMTETFGTTCHGAGRALSRAKSRRNLDFQDVLDKLADMGIAIRVASPKLVMEEAPESYKNVTDVVNTCHDAGISKKAIKLRPIAVIKG
B4: ASHWIN (endogenous, HeLa nuclear extract) (protein, UniProt Q9BVC5 1-232)
chain: MAGDVGGRSCTDSELLLHPELLSQEFLLLTLEQKNIAVETDVRVNKDSLTDLYVQHAIPLPQRDLPKNRWGKMMEKKREQHEIKNETKRSSTVDGLRKRPLIVFDGSSTSTSIKVKKTENGDNDRLKPPPQASFTSNAFRKLSNSSSSVSPLILSSNLPVNNKTEHNNNDAKQNHDLTHRKSPSGPVKSPPLSPVGTTPVKLKRAAPKEEAEAMNNLKPPQAKRKIQHVTWP
B5: ARS2 (endogenous, HeLa nuclear extract) (protein, UniProt Q9BXP5 1-876)
chain: MGDSDDEYDRRRRDKFRRERSDYDRSRERDERRRGDDWNDREWDRGRERRSRGEYRDYDRNRRERFSPPRHELSPPQKRMRRDWDEHSSDPYHSGYEMPYAGGGGGPTYGPPQPWGHPDVHIMQHHVLPIQARLGSIAEIDLGVPPPVMKTFKEFLLSLDDSVDETEAVKRYNDYKLDFRRQQMQDFFLAHKDEEWFRSKYHPDEVGKRRQEARGALQNRLRVFLSLMETGWFDNLLLDIDKADAIVKMLDAAVIKMEGGTENDLRILEQEEEEEQAGKPGEPSKKEEGRAGAGLGDGERKTNDKDEKKEDGKQAENDSSNDDKTKKSEGDGDKEEKKEDSEKEAKKSSKKRNRKHSGDDSFDEGSVSESESESESGQAEEEKEEAEEALKEKEKPKEEEWEKPKDAAGLECKPRPLHKTCSLFMRNIAPNISRAEIISLCKRYPGFMRVALSEPQPERRFFRRGWVTFDRSVNIKEICWNLQNIRLRECELSPGVNRDLTRRVRNINGITQHKQIVRNDIKLAAKLIHTLDDRTQLWASEPGTPPLPTSLPSQNPILKNITDYLIEEVSAEEEELLGSSGGAPPEEPPKEGNPAEINVERDEKLIKVLDKLLLYLRIVHSLDYYNTCEYPNEDEMPNRCGIIHVRGPMPPNRISHGEVLEWQKTFEEKLTPLLSVRESLSEEEAQKMGRKDPEQEVEKFVTSNTQELGKDKWLCPLSGKKFKGPEFVRKHIFNKHAEKIEEVKKEVAFFNNFLTDAKRPALPEIKPAQPPGPAQILPPGLTPGLPYPHQTPQGLMPYGQPRPPILGYGAGAVRPAVPTGGPPYPHAPYGAGRGNYDAFRGQGGYPGKPRNRMVRGDPRAIVEYRDLDAPDDVDFF
B6: HPR1 (endogenous, HeLa nuclear extract) (protein, UniProt Q96FV9 1-657)
chain: MSPTPPLFSLPEARTRFTKSTREALNNKNIKPLLSTFSQVPGSENEKKCTLDQAFRGILEEEIINHSSCENVLAIISLAIGGVTEGICTASTPFVLLGDVLDCLPLDQCDTIFTFVEKNVATWKSNTFYSAGKNYLLRMCNDLLRRLSKSQNTVFCGRIQLFLARLFPLSEKSGLNLQSQFNLENVTVFNTNEQESTLGQKHTEDREEGMDVEEGEMGDEEAPTTCSIPIDYNLYRKFWSLQDYFRNPVQCYEKISWKTFLKYSEEVLAVFKSYKLDDTQASRKKMEELKTGGEHVYFAKFLTSEKLMDLQLSDSNFRRHILLQYLILFQYLKGQVKFKSSNYVLTDEQSLWIEDTTKSVYQLLSENPPDGERFSKMVEHILNTEENWNSWKNEGCPSFVKERTSDTKPTRIIRKRTAPEDFLGKGPTKKILMGNEELTRLWNLCPDNMEACKSETREHMPTLEEFFEEAIEQADPENMVENEYKAVNNSNYGWRALRLLARRSPHFFQPTNQQFKSLPEYLENMVIKLAKELPPPSEEIKTGEDEDEEDNDALLKENESPDVRRDKPVTGEQIEVFANKLGEQWKILAPYLEMKDSEIRQIECDSEDMKMRAKQLLVAWQDQEGVHATPENLINALNKSGLSDLAESLTNDNETNS

biological target: FLAG-UAP56 wild-type (WT) protein (UniProt Q13838); assay: affinity purification with mass spectrometry; GST-PHAX and FLAG-UAP56 with HNEs, ATP and RNase A; first anti-FLAG M2 affinity gel and 3xFLAG peptide elution, then Glutathione Sepharose and HRV 3C protease; SDS-PAGE, CBB staining, mass spectrometry of cut-out bands; anti-ALY western blotting; only the target purified

| Binder | binding |
| --- | --- |
| B1 | binds |
| B2 | binds |
| B3 | binds |
| B4 | binds |
| B5 | binds |

biological target: GST-PHAX (UniProt Q9H814); assay: as above

| Binder | binding |
| --- | --- |
| B6 | binds |
| B1 | binds |
| B2 | binds |
| B3 | binds |
| B4 | binds |
| B5 | binds |
